Drawing on paper PMC4742909, this text covers binding for two substances.

Results are given in words; binding and its absence hold for the method and conditions named. In cells and extracts the contact can be indirect. For some assays here: Binding can be weak; no strength is given.

Assay [1] has as its target T1, ARHGAP33 (expressed from pME-ARHGAP33) (UniProt Q80YF9).
T1 sequence: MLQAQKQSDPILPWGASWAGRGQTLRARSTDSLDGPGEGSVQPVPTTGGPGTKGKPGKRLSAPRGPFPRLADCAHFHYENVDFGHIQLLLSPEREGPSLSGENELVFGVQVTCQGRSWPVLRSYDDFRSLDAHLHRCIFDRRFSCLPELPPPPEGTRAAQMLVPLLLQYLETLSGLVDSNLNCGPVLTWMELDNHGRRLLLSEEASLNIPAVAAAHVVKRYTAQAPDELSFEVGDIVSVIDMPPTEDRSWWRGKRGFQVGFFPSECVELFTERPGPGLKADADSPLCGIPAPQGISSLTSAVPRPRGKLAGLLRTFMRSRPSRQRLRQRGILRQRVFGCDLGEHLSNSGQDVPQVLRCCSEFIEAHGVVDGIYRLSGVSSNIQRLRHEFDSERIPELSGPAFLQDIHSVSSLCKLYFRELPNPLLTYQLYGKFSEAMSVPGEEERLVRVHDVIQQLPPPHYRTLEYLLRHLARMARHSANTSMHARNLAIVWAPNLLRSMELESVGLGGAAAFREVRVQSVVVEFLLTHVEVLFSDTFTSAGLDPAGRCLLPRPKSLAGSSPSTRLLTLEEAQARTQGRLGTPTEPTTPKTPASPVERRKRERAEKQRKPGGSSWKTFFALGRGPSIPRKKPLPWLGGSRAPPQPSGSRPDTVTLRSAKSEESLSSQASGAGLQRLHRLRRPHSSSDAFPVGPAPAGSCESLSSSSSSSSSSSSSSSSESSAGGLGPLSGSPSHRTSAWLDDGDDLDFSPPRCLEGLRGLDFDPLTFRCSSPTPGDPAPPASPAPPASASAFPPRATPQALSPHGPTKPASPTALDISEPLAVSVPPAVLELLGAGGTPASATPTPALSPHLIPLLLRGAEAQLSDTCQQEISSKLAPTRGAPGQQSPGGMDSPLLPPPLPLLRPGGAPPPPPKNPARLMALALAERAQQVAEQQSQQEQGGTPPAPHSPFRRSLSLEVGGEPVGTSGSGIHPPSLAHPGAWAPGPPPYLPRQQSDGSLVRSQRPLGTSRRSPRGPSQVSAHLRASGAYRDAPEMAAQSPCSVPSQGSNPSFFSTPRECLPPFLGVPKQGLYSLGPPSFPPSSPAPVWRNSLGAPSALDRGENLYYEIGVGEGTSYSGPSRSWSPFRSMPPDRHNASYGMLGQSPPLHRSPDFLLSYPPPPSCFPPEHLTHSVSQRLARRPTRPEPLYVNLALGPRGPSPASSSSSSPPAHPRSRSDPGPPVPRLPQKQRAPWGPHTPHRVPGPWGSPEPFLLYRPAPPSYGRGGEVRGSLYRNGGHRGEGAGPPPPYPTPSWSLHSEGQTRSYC
Description: co-IP; HEK293T cells transfected with ARHGAP33, SORT1 and TrkB as indicated; TNE lysates, protein G-sepharose; immunoblot. (A western blot detects proteins with antibodies after separation by electrophoresis.)

Assay [2] has as its target T2, ARHGAP33 (mouse (endogenous in hippocampus)) (UniProt Q80YF9).
T2 sequence: T1 sequence
In words: co-IP; anti-ARHGAP33 immunoprecipitates from hippocampal lysates of WT and ARHGAP33 KO mice; TNE buffer, antibody on ice 1 h, protein G-sepharose, five washes; immunoblot.

For “SORT1 (cDNA from Origene in pME18S) (receptor)”, in assay [1], the binding result is “binds”.

Turning to “Rab27 (mouse (endogenous in hippocampus))”, the binding entry in assay [2] was “no binding”.
